According to patent publication EP4725507A1, “POLYPEPTIDE CONJUGATE, PHARMACEUTICAL COMPOSITION CONTAINING POLYPEPTIDE CONJUGATE AND USE THEREOF” (Nanjing Anji Biotechnology Co., Ltd., priority 2023, dated 2025):

System: A549 (non-small cell lung cancer cells)
Test: Tumor cell proliferation inhibition (CCK8)
Assay type: cell-based
Settings: Homo sapiens, 72 h
Description: Human highly metastatic hepatocellular carcinoma cells HCCLM3, human highly metastatic gastric cancer cells MKN45, human gastric cancer cells BGC-823 and MGC-803, non-small cell lung cancer cells A549, human pancreatic cancer cells ASPC-1, human colon cancer cells LoVo, human ovarian cancer cells A2780, human cervical cancer cells SiHa, human malignant melanoma cells SK-mel-2 and M14, human osteosarcoma cells Saos-2, human bladder transitional cell carcinoma cells T24, human brain glioblastoma cells U87-MG, human lymphoma cells Raji, and human epidermal cancer cells A431 were selected for the experiment. Among them, HCCLM3 cells, MKN45 cells, BGC-823 cells, MGC-803 cells, A431 cells and A549 cells were provided by Nanjing Anji Biotechnology Co., Ltd., and the other cells were provided by Nanjing Ouji Pharmaceutical Technology Service Co., Ltd.
The aforementioned tumor cells were preserved in a medium containing 10% fetal bovine serum and 1% penicillin-streptomycin, and incubated at 37°C with 5% CO2 and 95% humidity. […]
Tumor cells in the logarithmic growth phase were taken for the experiment. The cells were digested, counted, and prepared into a cell suspension with a concentration of 1×10^5 cells/mL, which was then inoculated into a 96-well plate (100 µL per well). […] After incubation, the absorbance was measured at 450 nm, and the tumor cell proliferation inhibition rate was calculated. […]

IC50: 541 nM
Structure (SMILES): CC(=O)O[C@H]1C(=O)[C@@]2(C)[C@H]([C@H](OC(=O)c3ccccc3)[C@]3(O)C[C@H](OC(=O)[C@H](O)[C@@H](NC(=O)c4ccccc4)c4ccccc4)C(C)=C1C3(C)C)[C@]1(OC(C)=O)CO[C@@H]1C[C@@H]2O [PTX, paclitaxel]
